The record followed here is the supplement of paper PMC10849652.

Amino acid sequences for entries named in this document (tags omitted). A change or cut given only in a name is not applied to a line headed by its entry.
UniProt Q9P275: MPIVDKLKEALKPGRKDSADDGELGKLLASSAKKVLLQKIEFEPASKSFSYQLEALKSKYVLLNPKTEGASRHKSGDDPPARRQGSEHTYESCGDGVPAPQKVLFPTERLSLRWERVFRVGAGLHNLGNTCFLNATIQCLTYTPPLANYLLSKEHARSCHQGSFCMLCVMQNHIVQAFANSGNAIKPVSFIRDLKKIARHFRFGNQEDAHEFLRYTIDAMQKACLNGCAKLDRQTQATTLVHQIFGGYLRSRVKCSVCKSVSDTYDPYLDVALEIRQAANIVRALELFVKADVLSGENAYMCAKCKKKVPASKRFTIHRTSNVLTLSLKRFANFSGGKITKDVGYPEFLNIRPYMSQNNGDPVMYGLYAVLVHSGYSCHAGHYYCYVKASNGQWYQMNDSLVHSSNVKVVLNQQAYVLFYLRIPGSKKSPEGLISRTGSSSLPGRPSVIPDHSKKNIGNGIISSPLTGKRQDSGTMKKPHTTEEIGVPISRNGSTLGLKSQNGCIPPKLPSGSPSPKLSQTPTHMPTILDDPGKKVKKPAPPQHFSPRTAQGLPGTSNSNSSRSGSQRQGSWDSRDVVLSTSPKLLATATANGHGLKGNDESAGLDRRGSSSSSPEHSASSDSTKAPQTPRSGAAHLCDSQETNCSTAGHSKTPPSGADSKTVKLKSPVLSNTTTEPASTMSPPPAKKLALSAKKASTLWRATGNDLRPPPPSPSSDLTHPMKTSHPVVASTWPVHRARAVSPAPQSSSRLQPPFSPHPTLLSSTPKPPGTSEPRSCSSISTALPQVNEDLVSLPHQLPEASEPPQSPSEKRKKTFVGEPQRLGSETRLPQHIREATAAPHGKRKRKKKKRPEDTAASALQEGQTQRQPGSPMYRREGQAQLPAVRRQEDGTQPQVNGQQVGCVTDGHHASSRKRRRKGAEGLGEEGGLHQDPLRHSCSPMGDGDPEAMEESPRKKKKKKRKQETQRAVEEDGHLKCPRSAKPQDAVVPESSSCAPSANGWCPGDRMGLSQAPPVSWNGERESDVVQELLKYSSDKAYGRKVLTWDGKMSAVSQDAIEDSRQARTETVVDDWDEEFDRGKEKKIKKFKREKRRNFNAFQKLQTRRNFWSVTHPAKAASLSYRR
UniProt C9J7I0: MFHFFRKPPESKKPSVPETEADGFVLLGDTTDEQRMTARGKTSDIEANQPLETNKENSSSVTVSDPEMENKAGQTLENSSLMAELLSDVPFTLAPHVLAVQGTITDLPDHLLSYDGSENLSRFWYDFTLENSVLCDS
UniProt O75317, whole entry, looked up: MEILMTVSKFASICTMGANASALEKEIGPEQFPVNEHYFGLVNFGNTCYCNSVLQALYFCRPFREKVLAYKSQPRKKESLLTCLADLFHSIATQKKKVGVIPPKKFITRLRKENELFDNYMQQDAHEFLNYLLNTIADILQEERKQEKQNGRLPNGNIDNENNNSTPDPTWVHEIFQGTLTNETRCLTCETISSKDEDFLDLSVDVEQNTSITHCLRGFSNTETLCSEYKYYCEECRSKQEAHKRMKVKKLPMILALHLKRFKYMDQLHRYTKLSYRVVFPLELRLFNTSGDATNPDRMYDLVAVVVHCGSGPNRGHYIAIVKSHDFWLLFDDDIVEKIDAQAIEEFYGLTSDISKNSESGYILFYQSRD
UniProt Q92738: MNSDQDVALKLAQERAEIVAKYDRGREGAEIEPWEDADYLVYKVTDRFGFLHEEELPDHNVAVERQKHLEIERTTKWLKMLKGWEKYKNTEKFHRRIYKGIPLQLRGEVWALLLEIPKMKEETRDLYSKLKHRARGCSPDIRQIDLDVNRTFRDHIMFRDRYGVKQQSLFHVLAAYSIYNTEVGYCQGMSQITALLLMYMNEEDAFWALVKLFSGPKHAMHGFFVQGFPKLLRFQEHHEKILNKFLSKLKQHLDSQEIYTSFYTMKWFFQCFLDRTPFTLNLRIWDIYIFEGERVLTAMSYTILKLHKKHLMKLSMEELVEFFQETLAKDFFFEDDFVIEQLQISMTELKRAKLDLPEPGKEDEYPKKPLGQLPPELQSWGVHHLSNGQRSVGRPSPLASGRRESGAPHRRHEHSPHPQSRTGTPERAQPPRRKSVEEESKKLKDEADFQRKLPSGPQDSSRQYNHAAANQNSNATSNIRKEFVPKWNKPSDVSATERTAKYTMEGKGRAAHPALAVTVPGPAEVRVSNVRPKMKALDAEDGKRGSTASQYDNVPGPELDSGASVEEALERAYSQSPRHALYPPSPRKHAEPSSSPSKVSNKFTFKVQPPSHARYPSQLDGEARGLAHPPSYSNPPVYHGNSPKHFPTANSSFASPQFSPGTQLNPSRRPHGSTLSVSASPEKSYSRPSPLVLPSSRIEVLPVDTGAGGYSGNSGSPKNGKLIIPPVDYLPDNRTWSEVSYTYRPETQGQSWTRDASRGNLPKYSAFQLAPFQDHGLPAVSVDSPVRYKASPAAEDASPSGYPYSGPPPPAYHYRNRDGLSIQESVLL
UniProt P52735: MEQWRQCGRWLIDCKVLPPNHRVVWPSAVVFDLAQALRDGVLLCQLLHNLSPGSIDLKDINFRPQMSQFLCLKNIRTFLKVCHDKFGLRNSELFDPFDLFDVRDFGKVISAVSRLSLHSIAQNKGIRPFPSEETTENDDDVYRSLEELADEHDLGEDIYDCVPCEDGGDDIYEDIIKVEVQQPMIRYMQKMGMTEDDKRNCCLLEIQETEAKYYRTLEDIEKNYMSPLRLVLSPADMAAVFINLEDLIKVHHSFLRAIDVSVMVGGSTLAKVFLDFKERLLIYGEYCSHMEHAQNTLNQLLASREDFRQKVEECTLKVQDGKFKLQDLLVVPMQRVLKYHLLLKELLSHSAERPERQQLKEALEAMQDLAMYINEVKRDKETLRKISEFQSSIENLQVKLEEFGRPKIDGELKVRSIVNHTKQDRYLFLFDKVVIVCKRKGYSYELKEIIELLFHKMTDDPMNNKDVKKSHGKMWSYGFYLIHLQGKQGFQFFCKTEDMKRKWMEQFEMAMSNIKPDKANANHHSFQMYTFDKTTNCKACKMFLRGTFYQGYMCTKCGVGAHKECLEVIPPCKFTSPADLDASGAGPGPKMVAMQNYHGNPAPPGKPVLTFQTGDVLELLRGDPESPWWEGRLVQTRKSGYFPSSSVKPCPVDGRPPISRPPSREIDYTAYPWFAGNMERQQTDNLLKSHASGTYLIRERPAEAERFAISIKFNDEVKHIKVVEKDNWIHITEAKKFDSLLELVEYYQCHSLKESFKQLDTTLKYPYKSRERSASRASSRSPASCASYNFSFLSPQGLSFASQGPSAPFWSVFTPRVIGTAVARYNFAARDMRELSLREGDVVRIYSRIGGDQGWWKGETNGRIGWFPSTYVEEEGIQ
UniProt Q9Y4E8: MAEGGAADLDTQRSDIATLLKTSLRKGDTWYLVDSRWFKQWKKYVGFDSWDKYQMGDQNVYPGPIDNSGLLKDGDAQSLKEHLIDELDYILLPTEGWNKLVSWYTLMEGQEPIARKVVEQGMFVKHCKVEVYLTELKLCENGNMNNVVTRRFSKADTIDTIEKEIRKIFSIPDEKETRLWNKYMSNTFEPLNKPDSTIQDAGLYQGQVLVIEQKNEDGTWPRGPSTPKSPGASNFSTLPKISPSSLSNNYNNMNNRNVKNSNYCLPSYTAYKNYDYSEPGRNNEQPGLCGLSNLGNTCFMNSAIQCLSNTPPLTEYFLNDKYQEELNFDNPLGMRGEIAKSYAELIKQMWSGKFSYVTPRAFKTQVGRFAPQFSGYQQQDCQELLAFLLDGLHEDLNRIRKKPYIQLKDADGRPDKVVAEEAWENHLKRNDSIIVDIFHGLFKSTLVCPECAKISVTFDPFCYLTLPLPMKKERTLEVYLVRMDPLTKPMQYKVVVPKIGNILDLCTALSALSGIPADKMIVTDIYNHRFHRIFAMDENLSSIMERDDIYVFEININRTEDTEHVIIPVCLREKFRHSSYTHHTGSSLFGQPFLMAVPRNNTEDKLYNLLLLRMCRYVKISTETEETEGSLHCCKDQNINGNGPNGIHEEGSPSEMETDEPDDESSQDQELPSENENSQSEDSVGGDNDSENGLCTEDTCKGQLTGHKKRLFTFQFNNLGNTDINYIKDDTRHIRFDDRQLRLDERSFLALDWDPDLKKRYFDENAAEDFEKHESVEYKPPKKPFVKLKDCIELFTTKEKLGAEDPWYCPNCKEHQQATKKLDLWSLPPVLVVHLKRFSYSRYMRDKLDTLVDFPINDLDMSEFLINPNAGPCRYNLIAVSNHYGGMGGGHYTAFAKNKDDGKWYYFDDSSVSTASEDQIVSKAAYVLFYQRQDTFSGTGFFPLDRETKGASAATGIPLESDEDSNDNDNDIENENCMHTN
UniProt P13051, whole entry, looked up: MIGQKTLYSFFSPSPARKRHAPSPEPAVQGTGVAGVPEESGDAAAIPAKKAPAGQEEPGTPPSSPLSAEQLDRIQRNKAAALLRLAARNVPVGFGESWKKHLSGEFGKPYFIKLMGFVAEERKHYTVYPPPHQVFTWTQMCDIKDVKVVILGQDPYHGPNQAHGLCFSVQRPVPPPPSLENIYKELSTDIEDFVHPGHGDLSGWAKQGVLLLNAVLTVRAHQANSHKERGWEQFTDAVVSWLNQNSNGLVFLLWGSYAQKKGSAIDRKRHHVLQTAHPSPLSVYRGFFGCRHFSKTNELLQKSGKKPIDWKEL
UniProt Q9H867: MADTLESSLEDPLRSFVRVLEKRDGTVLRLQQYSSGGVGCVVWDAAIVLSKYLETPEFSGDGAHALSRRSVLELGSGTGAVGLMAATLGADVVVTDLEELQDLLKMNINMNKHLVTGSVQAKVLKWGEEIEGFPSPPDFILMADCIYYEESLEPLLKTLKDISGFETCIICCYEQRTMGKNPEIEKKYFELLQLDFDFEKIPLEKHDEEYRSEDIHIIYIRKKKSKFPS
UniProt Q9UPT9: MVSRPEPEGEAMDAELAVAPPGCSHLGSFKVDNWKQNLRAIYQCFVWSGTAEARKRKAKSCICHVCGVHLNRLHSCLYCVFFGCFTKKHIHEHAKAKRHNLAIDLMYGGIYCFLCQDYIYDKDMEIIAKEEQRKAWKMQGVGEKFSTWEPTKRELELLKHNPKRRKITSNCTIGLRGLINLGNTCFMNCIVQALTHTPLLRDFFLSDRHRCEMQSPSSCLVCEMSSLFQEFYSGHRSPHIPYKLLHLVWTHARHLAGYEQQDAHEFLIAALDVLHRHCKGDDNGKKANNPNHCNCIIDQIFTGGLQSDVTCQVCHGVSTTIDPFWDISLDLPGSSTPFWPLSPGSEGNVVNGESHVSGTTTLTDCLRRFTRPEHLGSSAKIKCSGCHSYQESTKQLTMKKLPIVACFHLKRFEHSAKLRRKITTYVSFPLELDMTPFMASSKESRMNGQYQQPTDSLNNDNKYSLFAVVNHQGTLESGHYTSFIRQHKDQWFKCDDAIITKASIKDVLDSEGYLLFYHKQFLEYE
UniProt Q14135: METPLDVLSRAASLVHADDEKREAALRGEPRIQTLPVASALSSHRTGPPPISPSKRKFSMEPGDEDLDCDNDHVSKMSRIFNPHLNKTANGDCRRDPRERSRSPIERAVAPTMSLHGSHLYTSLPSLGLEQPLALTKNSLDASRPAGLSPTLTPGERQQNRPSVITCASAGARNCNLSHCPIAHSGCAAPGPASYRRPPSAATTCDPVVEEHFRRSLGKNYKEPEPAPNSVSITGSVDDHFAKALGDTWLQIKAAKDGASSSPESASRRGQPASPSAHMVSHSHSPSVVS

The other results are listed elsewhere or left out.

Compound in one test: CS(=O)(=O)CCNCc1ccc(-c2ccc3ncnc(Nc4ccc(OCc5cccc(F)c5)c(Cl)c4)c3c2)o1 [lapatinib]
The test can be described thus: log2 fold change, soluble protein after heating vs DMSO (PISA); higher = thermal stabilisation; K562 lysate, 10 uM; active = over 0.2 and 3.5 SD of the protein, either way, in both replicates (recomputed). In outline:
(§1)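 Pellets of K562 cells were dounce-homogenised in PBS pH 7.4 with 1 mM MgCl2, and the crude extract was held at 1 mg/mL protein for a 30 min treatment with 10 μM compound. Aliquots were heated for 3 min over 48°C-58°C and pooled before NP-40 was added to 0.5% at 4°C. The supernatant from 21,000xg for 90 min was quantified by TMTpro 16plex LC-MS/MS with channel sums equalised. Values are reported from duplicates as log-two fold change in thermal stability relative to solvent controls.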
As for USP19 isoform 4 (UniProt O94966), the log2 fold change was inactive: 0.1. Take USP36 (UniProt Q9P275): the log2 fold change is inactive: -0.096. Same read-out and setting: then UMAD1 (UniProt C9J7I0), with inactive: 0.198; and UNC13B isoform 2 (UniProt O14795), with inactive: -0.111; and USP12 (UniProt O75317), with inactive: -0.072. The same measure, in the same setting: under USP6NL isoform 2 (UniProt Q92738) stands inactive: -0.032; under VAV2 (UniProt P52735), inactive: 0.192. On the same count and under the same terms, then USP15 isoform 3 (UniProt Q9Y4E8), with inactive: -0.067.

Compound in a further test: CS(=O)(=O)N1CCN(Cc2cc3nc(-c4cccc5[nH]ncc45)nc(N4CCOCC4)c3s2)CC1 [pictilisib]
The test is described as above. In outline: as §1
In the case of UNG (UniProt P13051), the log2 fold change was inactive: 0.098.

With VCPKMT (UniProt Q9H867), the log2 fold change is inactive: -0.135.

As to UNKL (UniProt E9PDK2), the log2 fold change was inactive: -0.113.

Turning to USP20 (UniProt Q9Y2K6), the log2 fold change was inactive: -0.145.

With UTRN isoform 2 (UniProt P46939), the log2 fold change is inactive: 0.01.

Turning to URGCP (UniProt Q8TCY9), the log2 fold change is inactive: -0.025. On to UGCG (UniProt Q16739), for which the log2 fold change is inactive: 0.004. The same measure, in the same setting: under USP22 (UniProt Q9UPT9) stands inactive: 0.001. The same measure, in the same setting: then VHL (UniProt P40337), with inactive: -0.003; and VGLL4 isoform 4 (UniProt Q14135), with inactive: -0.133.
